Common to all, as to assay: SPR; IBIS MX96 array; C-terminally biotinylated FcRs spotted at different densities (100–1 nM) on one SensEye G-streptavidin sensor, blocked with biotinylated BSA; CRP injected in 2-fold dilutions from 0.98 to 2,000 nM in 20 mM Tris, 280 mM NaCl, 5 mM CaCl2, pH 8.0; KD by equilibrium fitting to Rmax = 500; both purified
A general note: Surface plasmon resonance follows binding to a sensor surface in real time, without labels.

Amino acid sequences for entries named in this document (tags omitted). Residues count along the entry.
UniProt P31994, residues 43-217: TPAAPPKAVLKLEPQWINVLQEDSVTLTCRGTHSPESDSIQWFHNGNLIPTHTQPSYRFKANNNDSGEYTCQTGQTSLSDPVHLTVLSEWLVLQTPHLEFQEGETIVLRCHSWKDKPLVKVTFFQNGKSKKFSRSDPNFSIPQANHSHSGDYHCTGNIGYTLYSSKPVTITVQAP
UniProt P24071, residues 22-227: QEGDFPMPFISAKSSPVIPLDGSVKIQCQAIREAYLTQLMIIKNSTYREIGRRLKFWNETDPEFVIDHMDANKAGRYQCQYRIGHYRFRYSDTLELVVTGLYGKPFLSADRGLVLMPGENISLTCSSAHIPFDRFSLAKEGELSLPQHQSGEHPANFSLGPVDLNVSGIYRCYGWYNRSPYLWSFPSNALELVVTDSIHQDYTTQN
UniProt P12318, residues 34-217: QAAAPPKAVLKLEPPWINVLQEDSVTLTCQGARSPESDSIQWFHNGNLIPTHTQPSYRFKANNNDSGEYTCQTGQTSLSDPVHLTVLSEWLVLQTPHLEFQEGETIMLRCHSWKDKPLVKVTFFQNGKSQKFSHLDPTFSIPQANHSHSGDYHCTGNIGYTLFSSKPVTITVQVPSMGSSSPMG
UniProt P02741, residues 19-224: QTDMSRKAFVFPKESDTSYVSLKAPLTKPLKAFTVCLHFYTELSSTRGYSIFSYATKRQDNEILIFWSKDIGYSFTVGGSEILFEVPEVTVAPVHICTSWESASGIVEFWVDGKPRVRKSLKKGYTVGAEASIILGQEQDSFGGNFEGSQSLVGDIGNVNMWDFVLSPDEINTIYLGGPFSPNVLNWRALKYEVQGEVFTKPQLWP

Test [1] has as its target FcγRIIb, human, C-terminally biotinylated (human) (UniProt P31994).
Test [2] concerns the target IgA-Fc receptor I (FcαRI), human, extracellular domain, C-terminally biotinylated (human) (UniProt P24071).
In test [3] the target is FcγRIIa-H131, human, C-terminally biotinylated (human) (UniProt P12318).

Here are results for two substances from PMC8006934.

These are yes or no findings as the source states them, for the method shown. Some binding calls cover weakened binding; strength is not graded here.

“C-reactive protein (native CRP from human fluid) (from UniProt P02741 19-224) (other; other documents disagree on this pair)”: the binding result in test [1] is “binds”.

As for “C-reactive protein (native CRP from human fluid) (from UniProt P02741 19-224)”, the binding entry was “binds weakly” in test [2] and “binds” in test [3].
